We go through one molecule from patent US20110020235A1, “MR METHODS OF GRADING A TUMOR USING AN IMAGING MEDIUM THAT COMPRISES HYPERPOLARISED 13C-PYRUVATE” (priority 2007, published 2011).

The series has as its system TRAMP mouse prostate tumor. In words: in vivo 3D hyperpolarized 13C-MRSI of prostate tumors in TRAMP mice after injection of hyperpolarized 13C1-pyruvate. Particulars: 13C-MRSI 35 seconds after start of injection of 79 mM hyperpolarized pyruvate. The method, then:
All normal (N=5) and TRAMP (N=4 early stage primary tumor (low grade tumor)), N=5 late stage primary tumor (high grade tumor)) mouse studies were performed under a protocol approved by the UCSF Institutional Animal Care and Utilization Committee. (1). For all the mice included in this study, a 28 g port that extended from the dorsal surface of their neck was surgically implanted into one of their jugular veins at least one day before the hyperpolarized MR study. […]
^1H-MR images were acquired in sagittal, axial and coronal views using a T2-weighted fast spin echo sequence with a 6 cm FOV, 128×128 matrix, 1.5 mm slice thickness with no inter-slice spacing, and TE=102 ms/TR=4 s. […] A double spin-echo pulse sequence with a small flip-angle excitation, adiabatic refocusing, and a flyback echo-planar readout trajectory was used to acquire in vivo 3D hyperpolarized ^13C-MRSI data 35 seconds after the start of the pyruvate injection into jugular vein of six TRAMP mice (3 early and 3 late stage tumor) (1-2). […]
During the dissection digital photographs and videos were taken and excised tissues were immediately fixed in 10% buffered formalin. […] The % necrosis was also recorded (Table 1). […]

With `CC(=O)C(=O)O` [13C1-pyruvate], the “lactate to pyruvate ratio” value stood at 1.2 (early stage primary tumor (low grade)) and 3.4 (late stage primary tumor (high grade)).
